{
  "source": "the supplement of paper PMC8728848",
  "assay_in_all_cases": "glycan array binding signal (z-score within array); higher = stronger binding",
  "details_in_all_cases": "glycan notation: IUPAC condensed, linker removed",
  "key": {"[1]": {"target": "Neu5Gc(a2-8)Neu5Gc(a2-3)Gal(b1-4)GlcNAc", "summary_of_the_method": "(§1)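 Columns mapping to the same glycan were averaged after glycan names were converted to IUPAC-condensed notation. The data come from 3228 arrays in the Consortium for Functional Glycomics database, limited to those with an available protein sequence. Binding is reported as a within-array Z-score averaged across arrays of one protein sequence and across linkers.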"}, "[2]": {"target": "Neu5Gc(a2-8)Neu5Gc(a2-3)Gal(b1-4)GlcNAc(b1-3)Gal(b1-4)GlcNAc", "summary_of_the_method": "as §1"}, "[3]": {"target": "Neu5Gc(a2-8)Neu5Gc(a2-6)Gal(b1-4)GlcNAc", "summary_of_the_method": "as §1"}, "[4]": {"target": "Neu5Gc(b2-6)Gal(b1-4)GlcNAc", "summary_of_the_method": "as §1"}},
  "note": "This is one part of the list.",
  "data": [
    {"binder": "Drgal1 (Danio rerio) (protein) MAGVLIQNMSFKVGQTLTITGVPKPDSTNFAINIGHSPEDIALHMNPRFDAHGDQCTIVCNSFQSGSWCEEHRDDNFPFIQDKEFQIKITFTNEEFLVTLPDGSEIHFPNRQGSEKYKYMYFEGEVRIQGVEIK", "values": [
      {"measurement": "glycan array binding signal (z-score)", "setting": "[1]", "value": -0.702},
      {"measurement": "glycan array binding signal (z-score)", "setting": "[2]", "value": -0.663},
      {"measurement": "glycan array binding signal (z-score)", "setting": "[3]", "value": -0.686},
      {"measurement": "glycan array binding signal (z-score)", "setting": "[4]", "value": -0.465}
    ]}
  ]
}
